# Source: publication PMC11602975
# Amino acid sequences for entries named in this document (tags omitted). A change or cut given only in a name is not applied to a line headed by its entry. Chains listed by the source or under a name are the forms on record and can include a tag or linker.
# UniProt P29590: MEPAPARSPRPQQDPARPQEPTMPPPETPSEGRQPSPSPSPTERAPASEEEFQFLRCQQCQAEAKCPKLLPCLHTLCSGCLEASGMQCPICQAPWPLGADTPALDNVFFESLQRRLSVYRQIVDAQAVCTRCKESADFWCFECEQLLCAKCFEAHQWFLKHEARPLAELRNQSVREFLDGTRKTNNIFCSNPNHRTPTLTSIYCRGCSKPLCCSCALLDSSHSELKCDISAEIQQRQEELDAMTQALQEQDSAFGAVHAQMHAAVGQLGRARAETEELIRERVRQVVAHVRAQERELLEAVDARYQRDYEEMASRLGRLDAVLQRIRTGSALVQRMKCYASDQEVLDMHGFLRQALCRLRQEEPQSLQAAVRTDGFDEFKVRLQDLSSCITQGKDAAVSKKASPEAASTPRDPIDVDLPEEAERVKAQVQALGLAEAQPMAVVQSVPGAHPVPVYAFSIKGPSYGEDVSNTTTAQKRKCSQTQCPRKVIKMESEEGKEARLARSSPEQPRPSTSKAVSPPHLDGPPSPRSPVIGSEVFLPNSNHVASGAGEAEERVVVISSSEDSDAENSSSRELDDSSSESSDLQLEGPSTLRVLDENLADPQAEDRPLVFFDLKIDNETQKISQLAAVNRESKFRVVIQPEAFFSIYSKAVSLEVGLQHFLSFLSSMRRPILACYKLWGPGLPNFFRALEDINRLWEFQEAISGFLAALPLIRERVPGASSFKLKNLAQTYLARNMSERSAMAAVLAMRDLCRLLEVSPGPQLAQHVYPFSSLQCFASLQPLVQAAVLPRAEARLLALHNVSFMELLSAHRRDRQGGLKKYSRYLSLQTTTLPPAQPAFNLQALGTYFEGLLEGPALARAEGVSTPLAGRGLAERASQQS
# Flag-PML-I-Δ8a (P29590, form named): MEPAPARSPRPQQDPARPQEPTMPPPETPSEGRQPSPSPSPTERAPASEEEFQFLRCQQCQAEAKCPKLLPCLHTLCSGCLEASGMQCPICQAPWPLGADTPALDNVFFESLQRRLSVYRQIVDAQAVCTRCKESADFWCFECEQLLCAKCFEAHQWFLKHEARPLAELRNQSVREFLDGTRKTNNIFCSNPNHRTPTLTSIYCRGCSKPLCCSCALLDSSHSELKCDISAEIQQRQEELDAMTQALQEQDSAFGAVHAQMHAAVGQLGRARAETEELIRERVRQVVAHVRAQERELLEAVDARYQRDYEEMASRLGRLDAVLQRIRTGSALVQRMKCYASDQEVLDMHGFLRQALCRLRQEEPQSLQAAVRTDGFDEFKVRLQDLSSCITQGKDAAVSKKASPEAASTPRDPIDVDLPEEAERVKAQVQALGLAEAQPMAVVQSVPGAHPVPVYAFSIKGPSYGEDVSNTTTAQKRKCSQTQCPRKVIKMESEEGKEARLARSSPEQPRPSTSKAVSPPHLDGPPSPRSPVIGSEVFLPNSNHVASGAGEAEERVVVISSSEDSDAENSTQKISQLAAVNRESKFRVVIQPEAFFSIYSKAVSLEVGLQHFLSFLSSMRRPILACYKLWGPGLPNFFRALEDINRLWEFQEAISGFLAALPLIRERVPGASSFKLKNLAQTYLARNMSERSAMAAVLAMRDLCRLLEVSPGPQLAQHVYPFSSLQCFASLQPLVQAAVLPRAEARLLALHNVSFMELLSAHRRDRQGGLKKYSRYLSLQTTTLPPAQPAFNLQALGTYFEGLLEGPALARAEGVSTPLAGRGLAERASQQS
# Results are given in words; binding and its absence hold for the method and conditions named. Binding seen in cells or lysates may run through a third protein. Some binding calls cover weakened binding; strength is not graded here. Where a sequence is shown, tags or fusion partners need not be part of it.
# B1: HA-TREX1 (protein, UniProt Q9NSU2 1-314)
# chain: MGSQALPPGPMQTLIFFDMEATGLPFSQPKVTELCLLAVHRCALESPPTSQGPPPTVPPPPRVVDKLSLCVAPGKACSPAASEITGLSTAVLAAHGRQCFDDNLANLLLAFLRRQPQPWCLVAHNGDRYDFPLLQAELAMLGLTSALDGAFCVDSITALKALERASSPSEHGPRKSYSLGSIYTRLYGQSPPDSHTAEGDVLALLSICQWRPQALLRWVDAHARPFGTIRPMYGVTASARTKPRPSAVTTTAHLATTRNTSPSLGESRGTKDLPPVKDPGALSREGLLAPLGLLAILTLAVATLYGLSLATPGE
# Assays:
# Flag-PML-I (human) = Flag-PML-I (human) (UniProt P29590); assay: co-IP; HEK293T cells co-transfected with HA-TREX1 and Flag-PML-I or Flag-PML-I-Δ8a; lysates immunoprecipitated with anti-Flag M2 beads for 4 h; western blotting with anti-HA and anti-Flag
# Flag-PML-I-Δ8a (human) = Flag-PML-I-Δ8a (human) (UniProt P29590); assay: as above
binder,measurement,setting,value
B1,binding,Flag-PML-I (human),no binding
same,binding,Flag-PML-I-Δ8a (human),binds
